In PMC10163288:
The other results are listed elsewhere or left out.

B1: il2ra_site1_2b5i_sap_18_mot_0921d739bb7547bb6fa23329820ad62a_0001_000000012_0001_54_65_H_._HHH_b2_07807_0001_0000200011_0000001_0_0001 (protein)
chain: SSSSTERVKYIVRVVLRLAYRYNLSMEQMQELTELADELYQRGYSEEEIEEELEEKAKQLGSSSS
B2: il2ra_site1_3nfp_normal_mot_1dfc56a8f07a39e834a69883c800ee5d_0001_1_af2_000000099_0001_1_15_H_._b407ad934e5250b8240dbd3ef2c13209_0001_0001_0000300021_0000001_0 (protein)
chain: TAIVELILEAIEKNNEQDLRALRQLLERAEKRLPDPELRRLIELLIEAVEKKDPELVEEVRELVN
B3: il2ra_site2_3nfp_sap_23_mot_HHH_b2_08245_000000023_0001_41_55_H_._HHH_b2_07820_0001_0000400031_0000001_0_0001 (protein)
chain: SSSSEAEEYIRAALALAKEAAERNDPMAERHLELIRLMIESLGDEEAERLLEEIERLLRELSSSS
B4: il2ra_site1_1z92_sap_9_mot_HHH_b1_07916_af2_000000003_0001_3_15_H_._5d1becb6a9d54c9d42db3f0d03ab68b4_0001_0001_0000200028_0000001_0_0001 (protein)
chain: SSSSTREMARKAAEIVAEVIREFNLSDEEALELLKLADELLLNGYSEEEIKEILEELAHKSSSSS
B5: il2ra_site2_2erj_sap_19_mot_HHH_b2_01275_af2_000000073_0001_23_39_H_._HHH_b1_01063_af2_0001_0000200019_0000001_0_0001 (protein)
chain: SSSSDKLRELYELAVEVLRAVARGDEEEAERLLEEAKELAEELDSPNAREALENNKRLLKSSSSS
B6: il2ra_site1_3nfp_normal_mot_HHH_b1_03236_000000173_0001_17_33_H_._HHH_b1_06261_0001_0000400033_0000001_0 (protein)
chain: SSSSTEEEREASRLAQEIWELLKEGDKERVEELLEELEELAERLNDKVAEWFIRQVKELLSSSSS
B7: il2ra_site2_2erj_sap_31_mot_HHH_b1_06697_000000025_0001_41_54_H_._HHH_b2_04809_af2_0001_0000400004_0000001_0_0001 (protein)
chain: SSSSDEEERIEELVREIVEELGLSEEQRELLELAAKLAAERGLDEESIERLLRAYAELQRSSSSS
B8: il2ra_site2_3nfp_normal_mot_HHH_b2_07129_000000128_0001_19_36_H_._HHH_b1_05778_af2_0001_0000100001_0000001_0_af2pred_0001_1_af2pred_swapped (protein)
chain: SSSSDEEEEVERLLEKLEELVKRNDEEKFKRLAHKIAELIRELGDRRLFAILVEILLKFQRSSSS
B9: il2ra_site2_3nfp_sap_20_mot_HHH_b2_08245_000000272_0001_41_55_H_._787d21e84ebc3972f9e9a690c5e11347_0001_af2_0001_0000400015_0000001_0_0001 (protein)
chain: SDPELAELALELAEIWAAIHNDEELQEEVRELKEELEEAKKNNDEEKVERVAQLAAEIIERALES
B10: il2ra_site1_3nfp_sap_13_mot_HHH_b2_03549_000000219_0001_1_18_H_._HHH_b1_05723_af2_0001_0000600022_0000001_0_0001 (protein)
chain: SSSSSEIREEVEELLEEARRLMEEGNFREAVKVAEEAMRLAARAADDELDQLIMEWLRKLSSSSS
B11: il2ra_site2_2erj_sap_19_mot_HHH_b2_07688_000000103_0001_43_57_H_._HHH_b2_07873_af2_0001_0000200034_0000001_0_0001 (protein)
chain: SSSSSSAEEALRMVEELVEKNDREEIEYILMFLELTLKATGSPEIEEAFELVEELLEQLRRSSSS
B12: il2ra_site2_2erj_sap_21_mot_HHH_b1_00376_000000139_0001_38_52_H_._HHH_b2_08330_0001_0000700006_0000001_0_0001_af2pred_0001_af2pred (protein)
chain: SSSSSSDSEEEVERLLEEARHIPNLREALKLLQEADRIADERDDEELIELVDKVLRELSSSSSSS
B13: il2ra_site2_3nfp_normal_mot_HHH_b2_06150_000000230_0001_39_53_H_._HHH_b2_07317_0001_0000100008_0000001_0 (protein)
chain: SSSSSDVEELLEQVEEAIEEGDLELARRLLARAAQLAYELGDTELFYRVAELVLELERLKSSSSS
B14: il2ra_site1_1z92_normal_mot_HHH_b2_04375_000000267_0001_42_56_H_._c3a59189b182c38a193c256a3bd90efb_0001_1_0001_0000100007_0000001_0_af2pred_0001_af2pred_1_swapp … (protein)
chain: SEEEAEEFLEELAPPEAREVLKNDKEKAEKAGIPPERVLRVLALALARSLEDPRVKEEVEKLLRK
B15: il2ra_site1_3nfp_sap_12_mot_HHH_b1_07560_af2_000000209_0001_40_57_H_._HHH_b1_00637_0001_0000300019_0000001_0_0001_af2pred_0001_af2pred_1_swapped (protein)
chain: SELEEVLRELRERFKDDPEVEEVLELIKEAAEKGDVRLVRELLKRLLRVLGDPELVLALMRAMAK
B16: il2ra_site2_2erj_sap_18_mot_dcd9809507f71d420582ead1f1e1bbb3_0001_000000226_0001_37_50_H_._HHH_b2_00445_0001_0000200006_0000001_0_0001 (protein)
chain: SSSSDESEEILQEAREEIRELLENGNYHEAFRVLTEAAARLMKLGDIEALRELAEFVHKVSSSSS
B17: il2ra_site2_2erj_normal_mot_HHH_b2_02500_af2_000000175_0001_19_35_H_._HHH_b2_05903_0001_0000100010_0000001_0 (protein)
chain: SSSSSEELRRLYELADELMRAVWEGDEEAVEEIFEEIEKLAKEAQSESAREIAELLLRLFNSSSS
B18: il2ra_site1_3nfp_sap_7_mot_HHH_b2_01582_af2_000000000_0001_1_16_H_._856d6656b12a78c2cacd0d35356dc32d_0001_0001_0000400011_0000001_0_0001_af2pred_0001_af2pred (protein)
chain: SSSSDKAAKRARHLLARAILLLKQGNPEEAEKVAQEALRVAEEGNDERAREEIERLLEEIGSSSS
B19: il2ra_site2_2erj_normal_mot_HHH_b1_03097_000000125_0001_21_38_H_._HHH_b1_03595_af2_0001_0001000037_0000001_0 (protein)
chain: SSSSDEEEAEKLLEELERALEEGDEELFEKLAEKVSQVVYKLGDPQLFAALQELLFLAQQASSSS
B20: il2ra_site1_2b5i_normal_mot_3116615af0ee64d731c1c85d8523bf51_0001_000000216_0001_15_32_H_._HHH_b2_02526_af2_0001_0000300024_0000001_0_af2pred_dldesign_0_af2pred (protein)
chain: SSSSSPLAEKAEAAIAKARELKAAGKLREALELLEEIHKEVSAADDEELLARIEEVARELSSSSS
B21: il2ra_site2_2erj_sap_24_mot_HHH_b1_01310_000000213_0001_39_52_H_._HHH_b2_00637_af2_0001_0000100001_0000001_1_0001 (protein)
chain: SSSSNEELRRLYELAELLIRLITEGDREEFEEVLREAEELAEKLDSETAKRILENLHRRLSSSSS
B22: il2ra_site1_2b5i_normal_mot_HHH_b2_04910_000000118_0001_1_19_H_._HHH_b1_04383_0001_0000600015_0000001_0_af2pred_0001_af2pred_1 (protein)
chain: SSSSNEEEAKRARELFEEANRLDKNGNPEKARELLEEAEELAREAGSKALLKMIEIALRSISSSS
B23: il2ra_site1_2b5i_normal_mot_HHH_b2_04910_000000118_0001_1_19_H_._HHH_b1_05382_0001_0000100006_0000001_0 (protein)
chain: SSSSSEAARLFREYFKQADEADKRGNPEEAEELLEELIRLLRELNNPAFVRSAEVALKNLKSSSS
B24: il2ra_site2_2erj_normal_mot_HHH_b1_04462_000000080_0001_40_56_H_._HHH_b2_05347_0001_0000300010_0000001_0 (protein)
chain: SSSSDEEEVRRLLEEAQEAFEEGDLELVFRLRDKALHVASKTQNQELIELVARVTEEIQKSSSSS
B25: il2ra_site2_3nfp_normal_mot_HHH_b2_05976_000000001_0001_22_38_H_._HHH_b2_00952_0001_0000500028_0000001_0 (protein)
chain: SSSSDVEEEVEKLLEQAEELYRKGNPEEVRKILAEATHLAYEARNHELFALIQEFLSRLESSSSS
B26: il2ra_site2_3nfp_sap_12_mot_HHH_b1_03475_af2_000000198_0001_19_35_H_._HHH_b2_05651_0001_0000200010_0000001_0_0001 (protein)
chain: SSSSSKAEEYLRAALKIARLALEAGDPESARRIAEIALQAAEDQGDEELEEEIRKLLEEIGSSSS
B27: il2ra_site1_1z92_normal_mot_9b3351f2f66fbcc824ad33b4da01f8ef_0001_af2_000000012_0001_16_32_H_._HHH_b1_08171_0001_0000100006_0000001_0 (protein)
chain: SSSSSEEVLKKDLRFAVEARNPSSFRRLAELARRDLKEAGDEEALREFEEFVEELEQELGSSSSS
B28: il2ra_site1_3nfp_sap_20_mot_HHH_b2_01313_af2_000000007_0001_1_16_H_._HHH_b2_00572_0001_0000500025_0000001_0_0001_af2pred_0001_1_af2pred_swapped (protein)
chain: SSSSSSDKELIRFVIELAAKLGLSAEQSEELIKLLAQLEKRGISPEEIQEILKEYAEKLSSSSSS
B29: il2ra_site1_2b5i_normal_mot_HHH_b2_04910_000000118_0001_1_19_H_._HHH_b2_07787_0001_0000300030_0000001_0 (protein)
chain: SSSSDEESREARELFHRADELDKRGNPEEAEEVLEEALELARRAGSPQLAKMIESALRQLGSSSS
B30: il2ra_site2_3nfp_normal_mot_HHH_b2_07129_000000128_0001_19_36_H_._HHH_b1_06785_0001_0000200014_0000001_0 (protein)
chain: SSSSSVEERVEELIEQIEELIRRGDPEEARRLLREAIELAFRNRNHELFAKLADLSLLLWLSSSS
B31: il2ra_site2_3nfp_sap_19_mot_HHH_b2_08245_000000272_0001_41_55_H_._HHH_b1_00786_0001_0000100004_0000001_1_0001 (protein)
chain: SSSSSDERRRAAELATEDAKHVPDPERARLALKLALAHAAVANDEELAEEVERLLEELNSSSSSS
B32: il2ra_site2_3nfp_normal_mot_HHH_b2_04230_000000235_0001_39_52_H_._HHH_b2_01503_0001_0000100002_0000001_0 (protein)
chain: SSSSSEEVEKLLEEARELLEKGNPEEARKVLSRAAHLAYQLGNAELYFAVAELAHKVYQHSSSSS
B33: il2ra_site1_3nfp_normal_mot_1cd86ef9f1587ae5d14d35bbbd8e7f1d_0001_1_000000087_0001_34_49_H_._HHH_b2_02475_af2_0001_0000500017_0000001_0_af2pred_0001_1_af2pred_s … (protein)
chain: SSSDEESEELLEEAKEILQRLLEEGDYQEASKAAEELLRQLRELGDHEASEELLEFAKRVSSSSS
B34: il2ra_site1_2b5i_normal_mot_HHH_b2_04910_000000118_0001_1_19_H_._HHH_b1_07304_0001_0000400039_0000001_0_af2pred_0001_af2pred (protein)
chain: SSSSTDVARRLFELIERANRLFRNGNPEEAEQALEEAEELAEENNNKNALRSIRIMLEQIRSSSS
B35: il2ra_site2_3nfp_normal_mot_HHH_b1_06589_000000230_0001_37_50_H_._HHH_b2_04755_0001_0000600040_0000001_0 (protein)
chain: SSSSDLEEEVEELLERAKKLYEEGNPEEVRELLAEATHLAYENRNSELYMLVAEVAFELRGSSSS
B36: il2ra_site2_2erj_normal_mot_6ec3e94b46d95805cdcdc10c0c108f03_0001_af2_000000040_0001_36_50_H_._HHH_b1_06878_af2_0001_0000200008_0000001_0 (protein)
chain: SSSSSEWLRRLYELANRALHLHANGNPEEAREVLEEARELAEELNSESVRELVEELLRLLSSSSS
B37: il2ra_site2_3nfp_normal_mot_HHH_b1_02676_000000052_0001_38_56_H_._HHH_b2_02278_0001_0000200033_0000001_1 (protein)
chain: SSSSNEEELLEILLELAELLLQRASEEEREELEELIEELKEKGDPRVAHRLYELVARIYLSSSSS

Each binder was assayed against il2ra, P01589 (assay: yeast display titration).

Apparent Kd, inactive:
B1 no binding seen
B2 no binding seen
B3 no binding seen
B4 no binding seen
B5 no binding seen
B6 no binding seen
B7 no binding seen
B8 no binding seen
B9 no binding seen
B10 no binding seen
B11 no binding seen
B12 no binding seen
B13 no binding seen
B14 no binding seen
B15 no binding seen
B16 no binding seen
B17 no binding seen
B18 no binding seen
B19 no binding seen
B20 no binding seen
B21 no binding seen
B22 no binding seen
B23 no binding seen
B24 no binding seen
B25 no binding seen
B26 no binding seen
B27 > 1500 nM
B28 no binding seen
B29 no binding seen
B30 no binding seen
B31 no binding seen
B32 no binding seen
B33 no binding seen
B34 no binding seen
B35 no binding seen
B36 no binding seen
B37 no binding seen

2 entries picked at random from the list so far:
Apparent Kd, inactive:
B34 no binding seen
B17 no binding seen
